Laboratory results: paper PMC6826137
Where a chain is given by its changes, count along the chain named. Names may count otherwise. No constants are given. Whether binding was seen depends on the method and setting. For some assays here: In cells and extracts the contact can be indirect. Some binding calls cover weakened binding; strength is not graded here. Sequences can lack the tags named with a protein. Values belong to the molecule of their own block, whether it stands above or below them.

Amino acid sequences for entries named in this document (tags omitted). A change or cut given only in a name is not applied to a line headed by its entry. Residues count along the entry.
UniProt Q92743: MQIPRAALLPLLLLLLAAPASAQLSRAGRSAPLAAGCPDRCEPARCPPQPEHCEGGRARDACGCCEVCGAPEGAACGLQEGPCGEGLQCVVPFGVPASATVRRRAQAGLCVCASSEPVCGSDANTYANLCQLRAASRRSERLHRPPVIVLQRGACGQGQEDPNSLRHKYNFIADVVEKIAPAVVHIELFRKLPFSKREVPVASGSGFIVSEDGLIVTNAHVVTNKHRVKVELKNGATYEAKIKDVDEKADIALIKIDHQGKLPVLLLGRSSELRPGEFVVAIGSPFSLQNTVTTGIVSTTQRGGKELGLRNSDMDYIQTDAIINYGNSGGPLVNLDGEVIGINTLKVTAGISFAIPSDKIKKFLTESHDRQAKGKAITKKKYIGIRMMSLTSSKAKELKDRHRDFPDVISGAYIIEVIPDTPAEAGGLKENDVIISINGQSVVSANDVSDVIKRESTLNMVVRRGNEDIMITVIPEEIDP
HTRA1 (high temperature requirement A serine peptidase 1) in ARPE-19 lysate (human (endogenous in ARPE-19)): residues 23-480 of Q92743

How the values were obtained:
[1] = target: T1, Full-length WT-CTRP5 fused to the binding domain (BD) of GAL4 (UniProt Q9BXJ0); assay: two-hybrid; pairwise Y2H; GAL4 BD baits (CTRP5 forms) and GAL4 AD preys; growth on SD-Leu-Trp-His with 3-AT (1-10 mM) against SD-Leu-Trp; serial 10-fold dilutions
T1 sequence: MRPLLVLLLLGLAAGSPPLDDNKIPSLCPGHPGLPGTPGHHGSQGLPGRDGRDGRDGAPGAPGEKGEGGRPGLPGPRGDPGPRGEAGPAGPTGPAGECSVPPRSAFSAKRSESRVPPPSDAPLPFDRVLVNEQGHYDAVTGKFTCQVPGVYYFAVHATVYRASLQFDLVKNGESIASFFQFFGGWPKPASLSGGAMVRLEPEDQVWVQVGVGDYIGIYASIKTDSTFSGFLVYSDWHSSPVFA

[2] = target: T2, S163R-CTRP5 fused to the binding domain (BD) of GAL4 (UniProt Q9BXJ0); assay: as above
T2 sequence: T1 sequence with S163R

[3] = target: T1, Full-length WT-CTRP5 fused to the binding domain (BD) of GAL4; assay: two-hybrid; Matchmaker Gold Y2H library screen by mating; BD-CTRP5 as bait against a universal, normalized human cDNA library (TaKaRa) in pGADT7-RecAB; high-stringency plating
[4] = target: T3, S163R-CTRP5-V5 fusion protein (UniProt Q9BXJ0); assay: co-IP; lysates of ARPE-19 cells overexpressing WT-CTRP5-V5 or S163R-CTRP5-V5; IP with HTRA1 antibody, and reverse IP with anti-V5 antibody; immunoblots with anti-V5 and HTRA1 antibodies; normal rabbit IgG as control
T3 sequence: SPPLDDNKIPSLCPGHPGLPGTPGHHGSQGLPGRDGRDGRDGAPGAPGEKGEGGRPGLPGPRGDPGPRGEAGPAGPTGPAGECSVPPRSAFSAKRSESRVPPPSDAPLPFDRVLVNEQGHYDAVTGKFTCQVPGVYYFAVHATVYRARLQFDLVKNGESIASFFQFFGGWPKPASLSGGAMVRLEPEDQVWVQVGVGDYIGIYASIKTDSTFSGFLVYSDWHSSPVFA

[5] = target: T4, WT-CTRP5-V5 fusion protein (UniProt Q9BXJ0); assay: as above
T4 sequence: T3 sequence with R148S

[6] = target: T1, Full-length WT-CTRP5 fused to the binding domain (BD) of GAL4; assay: two-hybrid; pairwise Y2H; GAL4 BD baits (CTRP5 forms) and GAL4 AD preys; growth on SD-Leu-Trp-His with 3-AT (1-10 mM) against SD-Leu-Trp; serial 10-fold dilutions; remark: listed apart in the source
[7] = target: HTRA1 (high temperature requirement A serine peptidase 1) in ARPE-19 lysate (human (endogenous in ARPE-19)) (UniProt Q92743); assay: co-IP; lysates of ARPE-19 cells overexpressing WT-CTRP5-V5 or S163R-CTRP5-V5; IP with HTRA1 antibody, and reverse IP with anti-V5 antibody; immunoblots with anti-V5 and HTRA1 antibodies; normal rabbit IgG as control
[8] = target: T5, BD-CTRP5 (∆PDZ-ligand) (aa 1-238) (UniProt Q9BXJ0); assay: two-hybrid; pairwise Y2H; GAL4 BD baits (CTRP5 forms) and GAL4 AD preys; growth on SD-Leu-Trp-His with 3-AT (1-10 mM) against SD-Leu-Trp; serial 10-fold dilutions
T5 sequence: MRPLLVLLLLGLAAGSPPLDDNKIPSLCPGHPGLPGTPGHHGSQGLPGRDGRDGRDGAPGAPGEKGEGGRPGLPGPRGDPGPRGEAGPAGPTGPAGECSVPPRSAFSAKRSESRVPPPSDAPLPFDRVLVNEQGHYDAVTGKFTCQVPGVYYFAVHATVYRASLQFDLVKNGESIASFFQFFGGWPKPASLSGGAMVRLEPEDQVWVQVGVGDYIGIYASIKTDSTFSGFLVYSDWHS

binding [1]: binds
binding [2]: binds
binding [3]: binds
Molecule: AD-CL53 HTRA1 (306-480aa) (from UniProt Q92743 306-480) (domain or fragment)

binding [4]: binds
binding [5]: binds
Molecule: HTRA1 (high temperature requirement A serine peptidase 1) in ARPE-19 lysate (from UniProt Q92743 23-480) (enzyme)

binding [2]: binds
Molecule: ΔFS-HTRA1 (144-480 aa) fused with the AD domain of GAL4 (from UniProt Q92743 144-480) (domain or fragment)

binding [6]: binds
B1: Membrane frizzled-related protein (MFRP) (protein, UniProt Q9BY79 1-579)
chain: MKDFSDVILCMEATESSKTEFCNPAFEPESGPPCPPPVFPEDASYSVPAPWHGRRPRGLRPDCRFSWLCVLLLSSLLLLLLGLLVAIILAQLQAAPPSGASHSPLPAGGLTTTTTTPTITTSQAAGTPKGQQESGVSPSPQSTCGGLLSGPRGFFSSPNYPDPYPPNTHCVWHIQVATDHAIQLKIEALSIESVASCLFDRLELSPEPEGPLLRVCGRVPPPTLNTNASHLLVVFVSDSSVEGFGFHAWYQAMAPGRGSCAHDEFRCDQLICLLPDSVCDGFANCADGSDETNCSAKFSGCGGNLTGLQGTFSTPSYLQQYPHQLLCTWHISVPAGHSIELQFHNFSLEAQDECKFDYVEVYETSSSGAFSLLGRFCGAEPPPHLVSSHHELAVLFRTDHGISSGGFSATYLAFNATENPCGPSELSCQAGGCKGVQWMCDMWRDCTDGSDDNCSGPLFPPPELACEPVQVEMCLGLSYNTTAFPNIWVGMITQEEVVEVLSGYKSLTSLPCYQHFRRLLCGLLVPRCTPLGSVLPPCRSVCQEAEHQCQSGLALLGTPWPFNCNRLPEAADLEACAQP

binding [7]: binds
B2: WT-CTRP5-V5 fusion protein (protein, UniProt Q9BXJ0 16-243)
chain: T3 sequence with R148S

binding [7]: binds
B3: S163R-CTRP5-V5 fusion protein (protein, UniProt Q9BXJ0 16-243)
chain: T3 sequence

binding [8]: binds
binding [6]: binds
B4: Full-length WT-CTRP5 fused to the binding domain (BD) of GAL4 (protein, UniProt Q9BXJ0 1-243)
chain: T1 sequence
